Assay results: patent US20240368285A1
No constants are given. Whether binding was seen depends on the method and setting. Some entries that bind do so weakly or less than the wild type.

Tests used:
[1] = target: T1, MICA on human tumor cells (A-375, A549, HCT-15, MDA-MB-231) (human) (UniProt Q29983); test: flow cytometry on A-549 cells, Alexa-647 goat anti-human secondary, mean fluorescence intensity
T1 sequence (looked up): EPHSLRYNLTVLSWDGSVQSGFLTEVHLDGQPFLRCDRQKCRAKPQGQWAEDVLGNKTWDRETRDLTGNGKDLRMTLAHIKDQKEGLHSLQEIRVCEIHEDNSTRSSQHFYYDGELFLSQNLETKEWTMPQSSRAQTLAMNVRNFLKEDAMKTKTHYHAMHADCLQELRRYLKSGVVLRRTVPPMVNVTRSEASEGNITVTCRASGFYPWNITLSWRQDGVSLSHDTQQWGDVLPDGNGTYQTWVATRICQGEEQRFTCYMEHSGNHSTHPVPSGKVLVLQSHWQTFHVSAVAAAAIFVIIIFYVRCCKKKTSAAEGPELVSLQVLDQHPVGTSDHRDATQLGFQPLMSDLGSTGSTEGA

[2] = target: T1, MICA on human tumor cells (A-375, A549, HCT-15, MDA-MB-231) (human); test: flow cytometry on HCT-15 cells, Alexa-647 goat anti-human secondary, mean fluorescence intensity
[3] = target: T1, MICA on human tumor cells (A-375, A549, HCT-15, MDA-MB-231) (human); test: flow cytometry on HCT-15 cells, Alexa-647 goat anti-human secondary, % binding ratio
[4] = target: T1, MICA on human tumor cells (A-375, A549, HCT-15, MDA-MB-231) (human); test: flow cytometry on A-375 cells, Alexa-647 goat anti-human secondary, mean fluorescence intensity
[5] = target: T1, MICA on human tumor cells (A-375, A549, HCT-15, MDA-MB-231) (human); test: flow cytometry competition on HCT-15 cells; competitor: Biotin-h5A1002, detected with Alexa-647 streptavidin; % binding ratio of Biotin-h5A1002
[6] = target: T1, MICA on human tumor cells (A-375, A549, HCT-15, MDA-MB-231) (human); test: flow cytometry on A-549 cells, Alexa-647 goat anti-human secondary, % binding ratio
[7] = target: T1, MICA on human tumor cells (A-375, A549, HCT-15, MDA-MB-231) (human); test: flow cytometry competition on HCT-15 cells; competitor Biotin-h5A1002
[8] = target: T1, MICA on human tumor cells (A-375, A549, HCT-15, MDA-MB-231) (human); test: flow cytometry on A-375 cells, Alexa-647 goat anti-human secondary, % binding ratio
[9] = target: T1, MICA on human tumor cells (A-375, A549, HCT-15, MDA-MB-231) (human); test: flow cytometry on MDA-MB-231 cells, Alexa-647 goat anti-human secondary, mean fluorescence intensity
[10] = target: T1, MICA on human tumor cells (A-375, A549, HCT-15, MDA-MB-231) (human); test: flow cytometry on MDA-MB-231 cells, Alexa-647 goat anti-human secondary, % binding ratio
[11] = target: T1, MICA on human tumor cells (A-375, A549, HCT-15, MDA-MB-231) (human); test: flow cytometry on A-375, A-549, HCT-15 and MDA-MB-231 cells
[12] = target: T2, MICA protein (SPR analyte) (human) (UniProt Q29983); test: SPR (Biacore 8K), antibody captured on a protein A chip, MICA as analyte
T2 sequence: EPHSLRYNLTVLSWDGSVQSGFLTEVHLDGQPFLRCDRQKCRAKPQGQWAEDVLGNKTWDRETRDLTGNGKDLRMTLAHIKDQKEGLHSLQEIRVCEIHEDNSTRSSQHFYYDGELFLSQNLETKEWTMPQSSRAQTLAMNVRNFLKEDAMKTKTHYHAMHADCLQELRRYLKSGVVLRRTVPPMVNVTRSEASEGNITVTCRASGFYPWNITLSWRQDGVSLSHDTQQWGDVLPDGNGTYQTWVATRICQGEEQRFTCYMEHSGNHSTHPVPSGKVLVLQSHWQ

[13] = target: T1, MICA on human tumor cells (A-375, A549, HCT-15, MDA-MB-231) (human); test: flow cytometry on HCT-15 cells, Alexa-647 goat anti-human secondary, average fluorescence intensity
[14] = target: T1, MICA on human tumor cells (A-375, A549, HCT-15, MDA-MB-231) (human); test: flow cytometry on A-375 and HCT-15 cells
[15] = target: T1, MICA on human tumor cells (A-375, A549, HCT-15, MDA-MB-231) (human); test: flow cytometry on A-375 cells, Alexa-647 goat anti-human secondary, average fluorescence intensity

Measured: binding

B1: antibody 1D5V11 (Genentech) (antibody, human IgG1, kappa, V domains shown)
VH: EIQLVQSGAEVKKPGASVKVSCKASGYAFTSQNIYWVRQAPGQGLEWIGYIEPYNVVPMYNPKFKGRATLTVDKSTSTAYLELSSLRSEDTAVYYCARSGSSNFDYWGQGTLVTVSS
VL: DIQLTQSPSSLSASVGDRVTITCSASSSISSHYLHWYQQKPGKSPKLLIYRTSNLASGVPSRFSGSGSGTDYTLTISSLQPEDFATYYCQQGSSLPLTFGQGTKVEIKR
binds: [1] | [2] | [3] | [4] | [5] | [6] | [7] | [8] | [9] | [10]

B2: antibody CLN-619 (Cullinan) (antibody, human IgG1, kappa, V domains shown)
VH: QVQLVESGGGLVKPGGSLRLSCAASGFTFSNYAMSWIRQAPGKGLEWVSYISPGGDYIYYADSVKGRFTISRDNAKNSLYLQMNSLRAEDTAVYYCTTDRRHYGSYAMDYWGQGTLVTVSS
VL: DIVMTQSPLSLPVTPGEPASISCRSSKSLLHSNLNTYLYWFLQKPGQSPQILIYRMSNLASGVPDRFSGSGSGTAFTLKISRVEAEDVGVYYCMQHLEYPFTFGPGTKLEIKR
binds: [1] | [2] | [11] | [3] | [4] | [5] | [6] | [7] | [8] | [9] | [10]

B3: maternal humanized antibody h5A1 (antibody, human IgG1, kappa, V domains shown)
VH: QVQLQESGPGLVKPSETLSLTCTVSGFSLTTYGVHWIRQPPGKGLEWIGMIWTDGTTDYNAAFISRVTISVDTSKNQFSLKLSSVTAADTAVYYCARKGHGYYYAMDYWGQGTLVTVSS
VL: EIVLTQSPGTLSLSPGERATLSCTASSSVSSSYLHWYQQKPGQAPRLLIYSTSNLASGIPDRFSGSGSGTDFTLTISRLEPEDFAVYYCHQYHRSPFTFGQGTKLEIKR
binds: [12] | [13] | [14] | [15]

B4: affinity maturation antibody h5A1002 (antibody, V domains shown)
VH: QVQLQESGPGLVKPSETLSLTCTVSGFSLTTYGGHWIRQPPGKGLEWIGMIWTDGWTDYNAAFISRVTISVDTSKNQFSLKLSSVTAADTAVYYCARKGHGYYYAMDYWGQGTLVTVSS
VL: EIVLTQSPGTLSLSPGERATLSCTASSSVSSSYLHWYQQKPGQAPRLLIYSTSNLISGIPDRFSGSGSGTDFTLTISRLEPEDFAVYYCHQYHRSPFTFGQGTKLEIKR
binds: [12] | [13] | [1] | [14] | [2] | [11] | [3] | [4] | [5] | [6] | [15] | [8] | [9] | [10]
